# Measurements as given in PubChem BioAssay AID504834 (National Center for Advancing Translational Sciences (NCATS), 2011).
# Screen size: about 320,000 compounds; about 22,000 (6.9%) were called active. This list was built around the results that the source calls inconclusive (neither active nor inactive); the mix of calls is not that of the screen. Calls follow the shape of the dose curve; as a rule, active = well fitted inhibition curve with a large enough effect; inconclusive = small, poorly fitted or top-dose-only effect, or another doubt; inactive = no such curve, though single readings can be large or run the other way. Potencies beside an inconclusive call are fits to weak or partial responses and may not hold up.
# Test: Primary qHTS for delayed death inhibitors of the malarial parasite plastid, 96 hour incubation
# Conditions: P. falciparum luciferase reporter growth; series mostly up to 28.7 µM; activity change, negative = inhibition: at the top concentration
# How it was run: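 Parasite growth measured via integrated firefly luciferase reporter in P. falciparum. Infected erythrocytes at 2% hematocrit, 0.05% parasitemia final were treated 96 hours at 37 C under 5% CO2, and luminescence was read.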
# % is scaled to controls: 0 for no effect and ±100 for the full control effect; potency is read from the fitted curve at half-maximal effect.
Compound,Potency,"activity change, negative = inhibition"
Cc1ccc2c(c1)N(S(=O)(=O)c1cc(-c3onc(C)c3C)ccc1C)CCO2,"inconclusive: 18.5 µM [inhibitor, single point]",–
O=C(CNc1cccc([N+](=O)[O-])c1)N/N=C/c1ccc([N+](=O)[O-])o1,–,inactive: -14.4%
Cc1ccc(NC(=O)/C(=C\c2ccccc2)NC(=O)/C=C/c2ccccc2)cc1,"inconclusive: 2.08 µM [inhibitor, single point]",–
COc1ccccc1NS(=O)(=O)c1ccc(C)c(C(=O)NC2=NCCS2)c1,"inconclusive: 18.5 µM [inhibitor, single point]",–
CCOC(=O)c1cc(-c2csc(Nc3ccccc3Cl)n2)on1,–,inactive: 39.7%
Cc1cccc(NC(=S)Nc2cccc3ccccc23)c1,"inconclusive: 18.5 µM [inhibitor, single point]",–
O=C1/C(=C/c2ccc(O)cc2)SC(=S)N1CC1CCCO1 (configuration not stated),"inconclusive: 18.5 µM [inhibitor, single point]",–
O=C(COc1ccc(Br)cc1F)NC1CCN(Cc2ccccc2)CC1,"inconclusive: 9.28 µM [inhibitor, single point]",–
CCC(C)C(=O)Nc1ccc(S(=O)(=O)Nc2nccs2)cc1 (configuration not stated),"inconclusive: 18.5 µM [inhibitor, single point]",–
CCOC(=O)c1cc2c(=O)n3cccc(C)c3nc2n(Cc2ccco2)c1=NC(=O)c1cccnc1,"inconclusive: 11.7 µM [inhibitor, single point]",–
CC1=C(C(=O)Nc2ccc(C(=O)NCCCN3CCCCC3)cc2)SCCO1,"inconclusive: 14.7 µM [inhibitor, single point]",–
CCn1cc(C(=O)N2CCN(C(=O)c3ccco3)CC2)c2cc(OC)c(OC)cc2c1=O,"inconclusive: 18.5 µM [inhibitor, single point]",–
COc1ccc(-n2nc3c(c2NC(=O)c2ccccc2S(=O)(=O)C(F)F)CS(=O)(=O)C3)cc1,"inconclusive: 14.7 µM [inhibitor, partial curve]",–
Cc1ccc(CC2CC(=O)N(CCc3ccccc3)C2=O)cc1 (configuration not stated),active: 13.1 µM,–
COc1ccc(C(=O)N2CCN(c3c(C)cccc3C)CC2)cc1OC,"inconclusive: 0.0738 µM [inhibitor, full curve, poor fit]",–
Cc1ccc(N2CCN(C(=O)CCc3nc4ccccc4[nH]3)CC2)c(C)c1,"inconclusive: 10.4 µM [inhibitor, partial curve, poor fit]",–
O=C(O)c1cccc(Nc2ncnc3ccc(Br)cc23)c1,–,inactive: 27.8%
O=C(c1cccc(S(=O)(=O)N2CCOCC2)c1)N1CCN(S(=O)(=O)c2cccc([N+](=O)[O-])c2)CC1,"inconclusive: 18.5 µM [inhibitor, single point]",–
O=C(Nc1ccccc1)Nc1nc2ccccc2s1,"inconclusive: 11.7 µM [inhibitor, single point]",–
CCNC(=O)COc1ccc(CC)cc1,–,inactive: 3.93%
CCNC(=O)NC(=O)C(C)SCc1ccccc1C (configuration not stated),active: 6.57 µM,–

Compound,Potency,"activity change, negative = inhibition"
O=C(CCNC(=O)c1ccc(Cl)cc1)NC1CCCc2ccccc21 (configuration not stated),"inconclusive: 18.5 µM [inhibitor, partial curve, poor fit]",–
CCCCCCOc1ccc(/C=c2\s/c(=C(/C#N)C(=O)NCc3ccco3)n(-c3ccccc3)c2=O)cc1,"inconclusive: 2.62 µM [inhibitor, partial curve, poor fit]",–
C#C[C@@]1(O)CCC2C3CCC4=C/C(=N/OCC(=O)NC(C(=O)NC(CC(C)C)C(=O)O)C(C)C)CC[C@]4(C)C3CC[C@@]21C (some centres not stated),"inconclusive: 9.28 µM [inhibitor, partial curve]",–
COCCn1c(C)cc(C2=NNC(=Nc3ccc(Cl)cc3Cl)SC2)c1C,"inconclusive: 16.5 µM [inhibitor, single point]",–
CC(C)CCn1c(SC(C)C(=O)NC2CC2)nc2ccccc2c1=O (configuration not stated),"inconclusive: 0.0029 µM [inhibitor, full curve, poor fit]",–
Cc1ccc(C2C3=C(CCCC3=O)Nc3c2c(C)nn3-c2ccccn2)o1 (configuration not stated),–,inactive: -2.77%
CCN(CC)c1ccc(/C=N/NC(=O)Nc2ccccc2)cc1,–,inactive: 1.16%
O=C(c1ccc(Cl)c(S(=O)(=O)N2CCOCC2)c1)N1CCN(c2ccccc2)CC1,"inconclusive: 14.7 µM [inhibitor, partial curve]",–
CCOC(=O)N/N=C/c1c(F)c(F)c(F)c(F)c1F,"inconclusive: 7.38 µM [inhibitor, partial curve]",–
CCC(C)NC(=O)CS(=O)Cc1nc(-c2cccc(OC)c2)oc1C (configuration not stated),–,inactive: 6.46%
CCc1ccc(C(=O)COC(=O)c2n[nH]c3ccccc23)cc1,–,inactive: 120%
COc1cccc(-n2c(SCC(N)=O)nnc2-c2ccco2)c1,"inconclusive: 18.5 µM [inhibitor, single point]",–
O=C(C1COc2ccccc2O1)N1CCn2c(nc3ccccc32)C1 (configuration not stated),–,inactive: 5.23%
CCCC1(c2ccccc2)NC(=O)N(CC(=O)Nc2cc(S(=O)(=O)N3CCOCC3)ccc2Cl)C1=O (configuration not stated),active: 13.1 µM,–
O=C(CN1CCN(C(c2ccccc2)c2ccccc2)CC1)NCc1ccccc1,"inconclusive: 4.65 µM [inhibitor, partial curve]",–
COC(=O)C1=C(c2ccc3ccccc3c2)C[C@@H]2CC[C@H]1N2C(=O)NCc1ccco1,"inconclusive: 1.85 µM [inhibitor, full curve, poor fit]",–
COc1ccc(N2CC(C(=O)NCc3ccco3)CC2=O)cc1 (configuration not stated),–,inactive: 15.2%
COc1cccc(C(=O)Nc2nnc(-c3ccc(Cl)cc3)o2)c1,"inconclusive: 18.5 µM [inhibitor, single point]",–
CC(C)(C)NS(=O)(=O)c1ccc(NC(=O)CS(=O)(=O)Cc2ccccc2)cc1,"inconclusive: 18.5 µM [inhibitor, single point]",–
CC(C)C[C@@H](CN(C)N=O)N(C[C@H](Cc1ccccc1)N(CCc1ccccc1)N=O)N=O,"inconclusive: 8.28 µM [inhibitor, partial curve, poor fit]",–
Cc1cccc(N(Cc2ccccc2)C(=O)CCl)c1,"inconclusive: 16.5 µM [inhibitor, partial curve, poor fit]",–

# Reformatted bar-delimited: 9 of the compounds above.
Compound | Potency | activity change, negative = inhibition
O=C(C1COc2ccccc2O1)N1CCn2c(nc3ccccc32)C1 (configuration not stated) | – | inactive: 5.23%
CCCC1(c2ccccc2)NC(=O)N(CC(=O)Nc2cc(S(=O)(=O)N3CCOCC3)ccc2Cl)C1=O (configuration not stated) | active: 13.1 µM | –
O=C(CN1CCN(C(c2ccccc2)c2ccccc2)CC1)NCc1ccccc1 | inconclusive: 4.65 µM [inhibitor, partial curve] | –
COC(=O)C1=C(c2ccc3ccccc3c2)C[C@@H]2CC[C@H]1N2C(=O)NCc1ccco1 | inconclusive: 1.85 µM [inhibitor, full curve, poor fit] | –
COc1ccc(N2CC(C(=O)NCc3ccco3)CC2=O)cc1 (configuration not stated) | – | inactive: 15.2%
COc1cccc(C(=O)Nc2nnc(-c3ccc(Cl)cc3)o2)c1 | inconclusive: 18.5 µM [inhibitor, single point] | –
CC(C)(C)NS(=O)(=O)c1ccc(NC(=O)CS(=O)(=O)Cc2ccccc2)cc1 | inconclusive: 18.5 µM [inhibitor, single point] | –
CC(C)C[C@@H](CN(C)N=O)N(C[C@H](Cc1ccccc1)N(CCc1ccccc1)N=O)N=O | inconclusive: 8.28 µM [inhibitor, partial curve, poor fit] | –
Cc1cccc(N(Cc2ccccc2)C(=O)CCl)c1 | inconclusive: 16.5 µM [inhibitor, partial curve, poor fit] | –
